Source: article PMC8041927
Results are given in words; binding and its absence hold for the method and conditions named. In cells and extracts the contact can be indirect. Some entries that bind do so weakly or less than the wild type.

Target: Flag-FTO (UniProt Q9C0B1)
Assay: co-IP; HeLa cells transfected with Flag-EV, Flag-FTO, HA-p62 WT or HA-p62 ΔUBA; immunoprecipitation and blot for Flag-FTO and HA-p62; cells fixed with 0.4% formaldehyde, harvested in lysis buffer with 1% SDS and boiled, diluted, IP at 4 °C for 1.5 h; which tag was precipitated is not said

binding: binds
Substance: HA-p62 WT (from UniProt Q13501 1-440)
